These results are taken from publication PMC4477675.

Protein sequences, listed by entry. Tags and fused reporters are not part of them.
UniProt Q03468: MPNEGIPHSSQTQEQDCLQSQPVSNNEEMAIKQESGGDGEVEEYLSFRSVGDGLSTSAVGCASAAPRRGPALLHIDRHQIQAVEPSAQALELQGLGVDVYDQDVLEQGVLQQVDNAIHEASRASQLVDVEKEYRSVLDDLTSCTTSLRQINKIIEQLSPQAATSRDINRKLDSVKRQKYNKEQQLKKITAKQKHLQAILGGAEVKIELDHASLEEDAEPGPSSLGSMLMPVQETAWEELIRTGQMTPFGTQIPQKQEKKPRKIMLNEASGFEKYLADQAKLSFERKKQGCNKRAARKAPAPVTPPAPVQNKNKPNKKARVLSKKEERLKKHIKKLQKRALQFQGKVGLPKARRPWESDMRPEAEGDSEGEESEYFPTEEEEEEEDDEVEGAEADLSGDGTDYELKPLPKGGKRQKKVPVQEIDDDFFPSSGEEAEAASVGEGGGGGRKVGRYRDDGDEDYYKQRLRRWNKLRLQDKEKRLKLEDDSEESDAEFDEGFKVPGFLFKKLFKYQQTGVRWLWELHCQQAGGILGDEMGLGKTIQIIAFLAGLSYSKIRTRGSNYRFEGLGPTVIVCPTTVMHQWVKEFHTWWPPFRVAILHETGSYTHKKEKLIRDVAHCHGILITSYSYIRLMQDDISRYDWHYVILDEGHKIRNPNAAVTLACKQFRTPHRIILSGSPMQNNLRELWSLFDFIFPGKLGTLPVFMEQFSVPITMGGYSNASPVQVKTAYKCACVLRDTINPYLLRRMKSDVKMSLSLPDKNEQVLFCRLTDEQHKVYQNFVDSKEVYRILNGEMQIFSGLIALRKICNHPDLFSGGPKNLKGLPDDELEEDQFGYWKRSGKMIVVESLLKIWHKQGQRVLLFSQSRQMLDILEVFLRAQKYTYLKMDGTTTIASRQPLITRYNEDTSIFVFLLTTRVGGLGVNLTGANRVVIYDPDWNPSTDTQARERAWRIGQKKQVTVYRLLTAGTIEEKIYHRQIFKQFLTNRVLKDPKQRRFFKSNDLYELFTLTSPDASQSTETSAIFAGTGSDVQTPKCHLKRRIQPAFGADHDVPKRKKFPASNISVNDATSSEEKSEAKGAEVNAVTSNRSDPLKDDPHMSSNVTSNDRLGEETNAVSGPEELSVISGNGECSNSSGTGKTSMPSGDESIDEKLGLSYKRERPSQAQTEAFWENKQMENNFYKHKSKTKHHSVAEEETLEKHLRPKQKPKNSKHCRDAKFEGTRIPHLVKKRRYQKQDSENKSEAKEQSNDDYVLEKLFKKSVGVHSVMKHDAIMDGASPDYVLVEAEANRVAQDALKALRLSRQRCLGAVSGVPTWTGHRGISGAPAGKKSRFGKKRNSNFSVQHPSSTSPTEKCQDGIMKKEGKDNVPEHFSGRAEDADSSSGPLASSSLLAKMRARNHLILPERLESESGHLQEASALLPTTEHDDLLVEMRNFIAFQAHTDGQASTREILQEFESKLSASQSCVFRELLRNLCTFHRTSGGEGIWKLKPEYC
UniProt Q13216: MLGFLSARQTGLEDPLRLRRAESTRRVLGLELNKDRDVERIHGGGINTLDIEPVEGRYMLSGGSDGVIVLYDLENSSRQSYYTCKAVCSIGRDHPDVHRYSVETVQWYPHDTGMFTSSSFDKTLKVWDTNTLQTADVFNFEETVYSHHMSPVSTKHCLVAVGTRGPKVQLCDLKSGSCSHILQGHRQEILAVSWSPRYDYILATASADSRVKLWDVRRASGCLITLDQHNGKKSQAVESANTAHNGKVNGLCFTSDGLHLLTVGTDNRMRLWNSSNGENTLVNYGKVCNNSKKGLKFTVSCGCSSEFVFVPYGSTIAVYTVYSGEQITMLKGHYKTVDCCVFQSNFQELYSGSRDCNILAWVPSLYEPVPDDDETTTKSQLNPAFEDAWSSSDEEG

The target in this assay is T1, XPD (as used in the co-IP assays of Supplementary Figure S4) (human) (UniProt P18074).
T1 sequence: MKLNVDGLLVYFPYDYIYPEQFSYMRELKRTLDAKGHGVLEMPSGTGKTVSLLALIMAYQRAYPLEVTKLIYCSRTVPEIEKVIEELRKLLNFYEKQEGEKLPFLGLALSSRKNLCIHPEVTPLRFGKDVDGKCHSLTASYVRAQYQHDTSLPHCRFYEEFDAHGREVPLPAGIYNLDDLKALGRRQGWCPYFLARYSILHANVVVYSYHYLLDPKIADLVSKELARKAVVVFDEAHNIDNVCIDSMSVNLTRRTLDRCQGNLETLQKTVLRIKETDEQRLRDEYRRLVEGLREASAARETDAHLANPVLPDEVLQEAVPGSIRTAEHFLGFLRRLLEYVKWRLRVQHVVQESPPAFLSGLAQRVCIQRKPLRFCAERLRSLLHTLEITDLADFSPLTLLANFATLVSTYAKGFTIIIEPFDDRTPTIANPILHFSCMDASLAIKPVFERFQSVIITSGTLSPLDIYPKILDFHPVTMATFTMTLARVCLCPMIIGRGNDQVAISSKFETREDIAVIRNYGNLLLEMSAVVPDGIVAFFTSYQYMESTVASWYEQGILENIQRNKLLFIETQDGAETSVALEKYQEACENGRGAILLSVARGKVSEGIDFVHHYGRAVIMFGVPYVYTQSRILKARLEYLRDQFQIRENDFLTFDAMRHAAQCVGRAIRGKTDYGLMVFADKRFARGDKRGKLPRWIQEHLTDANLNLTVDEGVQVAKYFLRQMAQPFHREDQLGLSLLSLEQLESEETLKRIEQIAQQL
As to the kind of experiment: co-IP; co-IP assays of XPD with CSA or CSB (Supplementary Figure S4); set-up not told.

No constants are given. Whether binding was seen depends on the method and setting. In cells and extracts the contact can be indirect.

Regarding “CSB (from UniProt Q03468 1-1493) (other; other documents disagree on this pair)”, the binding entry was “no binding”.

As for CSA (from UniProt Q13216 1-396), the binding entry is on record as “no binding”.
